Where a name gives a salt, the structure may show the parent alone. Read-outs that look alike come from different tables or passages of the source. About 95 (3%) of roughly 3,300 compounds showed an effect of 50% or more. The list shows a part of the results.
Test system: HCoV-229E
Set-up: species or system Huh-7; HTS, protection from HCoV-229E induced cell death, luminescent cell viability (CellCounting-Lite 2.0), inhibition rate
Conditions: 24 h post infection, 1 h compound pre-incubation, 10 µM, inhibitor

C=C[C@H]1CN2CC[C@H]1C[C@H]2[C@H](O)c1ccnc2ccc(OC)cc12 [Quinine]
229E Inhibition rate (229E Inhibition rate, 24 h): 49.1%

C[C@]12CC[C@H](O)C[C@H]1CC[C@@H]1[C@@H]2C[C@@H](O)[C@]2(C)[C@@H](C3=CC(=O)OC3)CC[C@]12O [Digoxigenin]
229E Inhibition rate: 35%

COc1ccc(-c2coc3cc(O)ccc3c2=O)cc1 [Formononetin]
229E Inhibition rate: 21.3%

CC(C)N(CCCCOCC(=O)O)c1cnc(-c2ccccc2)c(-c2ccccc2)n1 [MRE-269]
229E Inhibition rate: 12.2%

CC1(C)CC[C@]2(C(=O)O)CC[C@]3(C)C(=CC[C@@H]4[C@@]5(C)CCC(=O)C(C)(C)[C@@H]5CC[C@]43C)[C@@H]2C1 [Oleanonic acid]
229E Inhibition rate: 5.9%

OCC1=C[C@H](N[C@H]2C[C@H](CO)[C@@H](O[C@@H]3O[C@H](CO)[C@@H](O)[C@H](O)[C@H]3O)[C@H](O)[C@H]2O)[C@H](O)[C@@H](O)[C@@H]1O [Validamycin A]
229E Inhibition rate: 13.2%

NC(=O)c1ccccc1O [Salicylamide]
229E Inhibition rate: 27.2%

Cc1cccs1 [2-Methylthiophene]
229E Inhibition rate: 21.5%

O=C(O)C(O)Cc1cc2ccccc2[nH]1 (stereo not drawn) [Indolelactic acid]
229E Inhibition rate: 16.7%

C/C=C1/CN2[C@H]3Cc4c([nH]c5ccccc45)[C@]2(O)C[C@@H]1[C@@]3(CO)C(=O)OC [16-Epivoacarpine]
229E Inhibition rate: 7.1%

CC(C)=CCc1cc2ccc(=O)oc2cc1O [Demethylsuberosin]
229E Inhibition rate: 7.5%

COc1cc2c(cc1OC)-c1c(C)c3ccc(OC)c(OC)c3c[n+]1CC2 [Dehydrocorydaline (nitrate)]
229E Inhibition rate (229E Inhibition rate, 24 h): 10.5%

COc1cc2oc3cc(O)c(OC)c(CC=C(C)C)c3c(=O)c2c(O)c1CC=C(C)C [beta-Mangostin]
229E Inhibition rate: 5%

COc1cc(O)c2c(=O)cc(-c3ccc(OC)c(-c4c(O)cc(O)c5c(=O)cc(-c6ccc(O)cc6)oc45)c3)oc2c1 [Ginkgetin]
229E Inhibition rate: 64.4%

N[C@H](CC(=O)O)C(=O)O [(-)-Aspartic acid]
229E Inhibition rate: 9.6%

CC(=O)[C@]1(O)Cc2c(O)c3c(c(O)c2[C@@H](O[C@H]2C[C@H](N)[C@H](O)[C@H](C)O2)C1)C(=O)c1c(O)cccc1C3=O [Carubicin (hydrochloride)]
229E Inhibition rate: 4.3%

CC/C=C\C/C=C\C/C=C\C/C=C\C/C=C\CCCC(=O)O [Eicosapentaenoic Acid]
229E Inhibition rate: 14.9%

C[C@]12CCC(=O)C=C1CC[C@@H]1[C@@H]2C(=O)C[C@@]2(C)[C@H]1CC[C@]2(O)C(=O)CO [Cortisone]
229E Inhibition rate: 18.3%
